Assay results taken from paper PMC5700813, “A recombinant BBSome core complex and how it interacts with ciliary cargo” (eLife, 2017).
These are yes or no findings as the source states them, for the method shown. Some results given as binding are weak or reduced against the parent protein; the word gives no strength. Blank lines part the entries; values can stand above or below the binder they belong to.

Assays:
[1] = target: T1, BBS9 N-terminal ß-propeller domain (residues 1–368) (human) (UniProt Q3SYG4); test: SEC; samples purified by affinity chromatography and gel filtration; 2.5–10 µg of the peak fraction on a Superdex 200 5/20 column; elution volume against standard proteins; both purified
T1 sequence: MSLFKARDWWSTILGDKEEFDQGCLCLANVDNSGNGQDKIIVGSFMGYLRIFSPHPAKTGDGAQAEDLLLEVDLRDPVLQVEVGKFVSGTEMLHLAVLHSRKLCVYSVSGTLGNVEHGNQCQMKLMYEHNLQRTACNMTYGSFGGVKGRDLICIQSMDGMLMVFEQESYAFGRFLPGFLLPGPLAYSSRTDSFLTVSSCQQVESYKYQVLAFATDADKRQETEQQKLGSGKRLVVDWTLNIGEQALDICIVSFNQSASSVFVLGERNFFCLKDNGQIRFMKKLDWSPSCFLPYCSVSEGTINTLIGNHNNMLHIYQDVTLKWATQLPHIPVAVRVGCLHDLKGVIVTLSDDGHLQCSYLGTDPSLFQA

[2] = target: T1, BBS9 N-terminal ß-propeller domain (residues 1–368) (human); test: co-expression and tandem affinity co-purification; subunits co-expressed in Hi5 insect cells; Strep/Flag tandem affinity purification; Coomassie-stained SDS-PAGE
[3] = target: T2, BBS9 (full length) (human) (UniProt Q3SYG4); test: as above
T2 sequence: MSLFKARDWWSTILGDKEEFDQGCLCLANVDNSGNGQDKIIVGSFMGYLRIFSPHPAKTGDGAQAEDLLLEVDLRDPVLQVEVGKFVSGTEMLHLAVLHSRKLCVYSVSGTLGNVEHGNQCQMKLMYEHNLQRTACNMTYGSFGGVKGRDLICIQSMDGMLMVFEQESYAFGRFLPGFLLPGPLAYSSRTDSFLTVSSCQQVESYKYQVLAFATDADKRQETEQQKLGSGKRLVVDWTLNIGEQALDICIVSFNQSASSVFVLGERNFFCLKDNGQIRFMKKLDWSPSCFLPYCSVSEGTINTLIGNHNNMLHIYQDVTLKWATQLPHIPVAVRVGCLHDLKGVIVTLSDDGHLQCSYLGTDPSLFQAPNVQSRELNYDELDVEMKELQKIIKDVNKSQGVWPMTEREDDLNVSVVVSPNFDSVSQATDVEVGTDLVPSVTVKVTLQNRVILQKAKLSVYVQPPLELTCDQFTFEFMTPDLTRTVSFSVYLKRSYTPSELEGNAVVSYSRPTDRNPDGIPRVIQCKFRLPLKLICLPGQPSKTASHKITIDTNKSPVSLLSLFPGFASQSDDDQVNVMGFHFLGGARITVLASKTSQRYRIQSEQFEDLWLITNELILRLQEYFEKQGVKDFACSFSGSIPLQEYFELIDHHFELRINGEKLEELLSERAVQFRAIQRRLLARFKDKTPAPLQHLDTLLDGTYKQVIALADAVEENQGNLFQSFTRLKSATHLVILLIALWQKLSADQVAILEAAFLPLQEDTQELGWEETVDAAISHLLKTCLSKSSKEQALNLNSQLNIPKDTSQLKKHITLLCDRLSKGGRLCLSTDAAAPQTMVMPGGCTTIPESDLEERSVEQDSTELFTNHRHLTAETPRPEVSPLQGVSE

[4] = target: T3, BBS9 C-terminal part (residues 363–887) (human) (UniProt Q3SYG4); test: as above
T3 sequence: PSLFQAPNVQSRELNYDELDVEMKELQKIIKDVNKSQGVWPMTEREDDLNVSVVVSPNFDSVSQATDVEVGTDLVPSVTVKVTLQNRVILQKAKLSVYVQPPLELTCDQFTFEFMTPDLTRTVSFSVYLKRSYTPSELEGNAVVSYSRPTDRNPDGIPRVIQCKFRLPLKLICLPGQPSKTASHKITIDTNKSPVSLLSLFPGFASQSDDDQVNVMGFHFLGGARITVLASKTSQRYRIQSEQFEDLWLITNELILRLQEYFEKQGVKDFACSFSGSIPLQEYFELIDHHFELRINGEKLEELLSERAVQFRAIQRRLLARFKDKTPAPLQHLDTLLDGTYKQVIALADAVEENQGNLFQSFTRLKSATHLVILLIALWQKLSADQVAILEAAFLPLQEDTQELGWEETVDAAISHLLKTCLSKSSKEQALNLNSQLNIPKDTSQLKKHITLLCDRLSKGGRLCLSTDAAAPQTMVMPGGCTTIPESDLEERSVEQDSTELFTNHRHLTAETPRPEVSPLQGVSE

B2: BBS5 (protein, UniProt Q8N3I7-1 1-341)
chain: MSVLDALWEDRDVRFDLSAQQMKTRPGEVLIDCLDSIEDTKGNNGDRGRLLVTNLRILWHSLALSRVNVSVGYNCILNITTRTANSKLRGQTEALYILTKCNSTRFEFIFTNLVPGSPRLFTSVMAVHRAYETSKMYRDFKLRSALIQNKQLRLLPQEHVYDKINGVWNLSSDQGNLGTFFITNVRIVWHANMNDSFNVSIPYLQIRSIKIRDSKFGLALVIESSQQSGGYVLGFKIDPVEKLQESVKEINSLHKVYSASPIFGVDYEMEEKPQPLEALTVEQIQDDVEIDSDGHTDAFVAYFADGNKQQDREPVFSEELGLAIEKLKDGFTLQGLWEVMS
binding [2]: binds
binding [3]: binds

B3: BBS2 (protein, UniProt Q9BXC9 1-721)
chain: MLLPVFTLKLRHKISPRMVAIGRYDGTHPCLAAATQTGKVFIHNPHTRNQHVSASRVFQSPLESDVSLLSINQAVSCLTAGVLNPELGYDALLVGTQTNLLAYDVYNNSDLFYREVADGANAIVLGTLGDISSPLAIIGGNCALQGFNHEGSDLFWTVTGDNVNSLALCDFDGDGKKELLVGSEDFDIRVFKEDEIVAEMTETEIVTSLCPMYGSRFGYALSNGTVGVYDKTSRYWRIKSKNHAMSIHAFDLNSDGVNELITGWSNGKVDARSDRTGEVIFKDNFSSAIAGVVEGDYRMDGHIQLICCSVDGEIRGYLPGTAEMRGNLMDTSAEQDLIRELSQKKQNLLLELRNYEENAKAELASPLNEADGHRGIIPANTRLHTTLSVSLGNETQTAHTELRISTSNDTIIRAVLIFAEGIFTGESHVVHPSIHNLSSSICIPIVPPKDVPVDLHLKAFVGYRSSTQFHVFESTRQLPRFSMYALTSLDPASEPISYVNFTIAERAQRVVVWLGQNFLLPEDTHIQNAPFQVCFTSLRNGGHLHIKIKLSGEITINTDDIDLAGDIIQSMASFFAIEDLQVEADFPVYFEELRKVLVKVDEYHSVHQKLSADMADHSNLIRSLLVGAEDARLMRDMKTMKSRYMELYDLNRDLLNGYKIRCNNHTELLGNLKAVNQAIQRAGRLRVGKPKNQVITACRDAIRSNNINTLFKIMRVGTASS
binding [3]: binds

Results, then the binder that gave them:

binding [1]: no binding
B1: BBS9 N-terminal ß-propeller domain (residues 1–368) (domain or fragment, UniProt Q3SYG4-1 1-368)
chain: T1 sequence

binding [4]: binds
binding [3]: binds
B4: BBS1 (protein, UniProt Q8NFJ9-1 1-593)
chain: MAAASSSDSDACGAESNEANSKWLDAHYDPMANIHTFSACLALADLHGDGEYKLVVGDLGPGGQQPRLKVLKGPLVMTESPLPALPAAAATFLMEQHEPRTPALALASGPCVYVYKNLRPYFKFSLPQLPPNPLEQDLWNQAKEDRIDPLTLKEMLESIRETAEEPLSIQSLRFLQLELSEMEAFVNQHKSNSIKRQTVITTMTTLKKNLADEDAVSCLVLGTENKELLVLDPEAFTILAKMSLPSVPVFLEVSGQFDVEFRLAAACRNGNIYILRRDSKHPKYCIELSAQPVGLIRVHKVLVVGSTQDSLHGFTHKGKKLWTVQMPAAILTMNLLEQHSRGLQAVMAGLANGEVRIYRDKALLNVIHTPDAVTSLCFGRYGREDNTLIMTTRGGGLIIKILKRTAVFVEGGSEVGPPPAQAMKLNVPRKTRLYVDQTLREREAGTAMHRAFQTDLYLLRLRAARAYLQALESSLSPLSTTAREPLKLHAVVQGLGPTFKLTLHLQNTSTTRPVLGLLVCFLYNEALYSLPRAFFKVPLLVPGLNYPLETFVESLSNKGISDIIKVLVLREGQSAPLLSAHVNMPGSEGLAAA
